No constants are given. Whether binding was seen depends on the method and setting. In cells and extracts the contact can be indirect. A result given as binding can be weak or reduced; the word gives no strength.
Molecular target: GST-PRMT1 (human) (UniProt Q99873)
Experiment: pull-down; GST-PRMT1 (GST as negative control) on glutathione-agarose beads, incubated with lysates of HEK293T cells transfected with HA-SMARCC1, 4 °C for 3 h; washed five times with NETN buffer; immunoblot; only the target purified

The chains behind the UniProt entries cited, without tags or fusion partners. Where a name states a change or a piece, a line headed by the entry shows the natural chain unless it says otherwise.
UniProt Q99873: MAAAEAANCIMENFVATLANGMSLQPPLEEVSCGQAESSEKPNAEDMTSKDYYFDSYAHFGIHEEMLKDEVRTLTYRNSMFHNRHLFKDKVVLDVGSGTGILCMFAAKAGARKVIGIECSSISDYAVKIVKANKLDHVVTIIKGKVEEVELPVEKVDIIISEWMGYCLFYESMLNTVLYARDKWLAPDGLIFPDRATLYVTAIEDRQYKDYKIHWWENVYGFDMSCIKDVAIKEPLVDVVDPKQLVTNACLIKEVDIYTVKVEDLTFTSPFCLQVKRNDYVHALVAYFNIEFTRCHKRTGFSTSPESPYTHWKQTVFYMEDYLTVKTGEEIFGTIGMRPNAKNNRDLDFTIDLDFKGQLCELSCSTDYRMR
UniProt Q92922: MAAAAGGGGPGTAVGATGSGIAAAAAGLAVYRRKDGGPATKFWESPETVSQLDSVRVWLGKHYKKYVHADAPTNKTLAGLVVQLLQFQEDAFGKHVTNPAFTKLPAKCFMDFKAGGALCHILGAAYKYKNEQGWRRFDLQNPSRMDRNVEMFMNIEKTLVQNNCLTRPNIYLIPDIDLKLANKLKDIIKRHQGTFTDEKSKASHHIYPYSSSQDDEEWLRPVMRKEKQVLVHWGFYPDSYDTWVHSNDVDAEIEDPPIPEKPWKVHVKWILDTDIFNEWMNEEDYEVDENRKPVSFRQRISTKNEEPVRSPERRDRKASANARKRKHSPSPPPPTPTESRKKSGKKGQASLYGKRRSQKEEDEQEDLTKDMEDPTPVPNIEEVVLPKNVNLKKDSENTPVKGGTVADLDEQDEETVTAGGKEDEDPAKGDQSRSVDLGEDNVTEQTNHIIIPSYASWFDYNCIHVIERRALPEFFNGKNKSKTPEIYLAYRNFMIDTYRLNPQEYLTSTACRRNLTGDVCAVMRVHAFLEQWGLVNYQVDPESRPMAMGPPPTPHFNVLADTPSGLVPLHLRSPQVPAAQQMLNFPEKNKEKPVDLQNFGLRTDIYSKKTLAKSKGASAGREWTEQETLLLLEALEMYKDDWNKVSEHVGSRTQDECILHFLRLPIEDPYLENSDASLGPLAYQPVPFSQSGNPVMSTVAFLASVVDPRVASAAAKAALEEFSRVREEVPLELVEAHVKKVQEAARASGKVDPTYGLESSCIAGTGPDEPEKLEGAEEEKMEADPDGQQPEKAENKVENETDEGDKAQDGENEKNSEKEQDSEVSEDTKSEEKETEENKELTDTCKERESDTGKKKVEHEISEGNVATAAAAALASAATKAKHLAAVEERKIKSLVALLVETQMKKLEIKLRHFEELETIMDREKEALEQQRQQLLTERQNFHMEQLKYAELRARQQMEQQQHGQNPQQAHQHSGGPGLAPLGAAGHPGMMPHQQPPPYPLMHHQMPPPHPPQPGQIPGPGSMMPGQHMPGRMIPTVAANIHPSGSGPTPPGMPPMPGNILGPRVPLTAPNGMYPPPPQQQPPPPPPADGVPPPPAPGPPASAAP

Q: “HA-tagged full-length SMARCC1 (amino acids 1–1105) (from UniProt Q92922 1-1105)” was tested. Which binding did it give?
A: Its binding is “binds”.

— PMC12165065
